Measured values reported in PMC7015052, “Transferrin plays a central role in coagulation balance by interacting with clotting factors” (Cell Research, 2019).
Results are given in words; binding and its absence hold for the method and conditions named. Some entries that bind do so weakly or less than the wild type. Values belong to the molecule of their own block, whether it stands above or below them.

The chains behind the UniProt entries cited, without tags or fusion partners. Where a name states a change or a piece, a line headed by the entry shows the natural chain unless it says otherwise. A line that says so, or that is headed by a name, gives the form on record, which may keep a tag or linker. Residues count along the entry.
UniProt P02768, residues 25-609: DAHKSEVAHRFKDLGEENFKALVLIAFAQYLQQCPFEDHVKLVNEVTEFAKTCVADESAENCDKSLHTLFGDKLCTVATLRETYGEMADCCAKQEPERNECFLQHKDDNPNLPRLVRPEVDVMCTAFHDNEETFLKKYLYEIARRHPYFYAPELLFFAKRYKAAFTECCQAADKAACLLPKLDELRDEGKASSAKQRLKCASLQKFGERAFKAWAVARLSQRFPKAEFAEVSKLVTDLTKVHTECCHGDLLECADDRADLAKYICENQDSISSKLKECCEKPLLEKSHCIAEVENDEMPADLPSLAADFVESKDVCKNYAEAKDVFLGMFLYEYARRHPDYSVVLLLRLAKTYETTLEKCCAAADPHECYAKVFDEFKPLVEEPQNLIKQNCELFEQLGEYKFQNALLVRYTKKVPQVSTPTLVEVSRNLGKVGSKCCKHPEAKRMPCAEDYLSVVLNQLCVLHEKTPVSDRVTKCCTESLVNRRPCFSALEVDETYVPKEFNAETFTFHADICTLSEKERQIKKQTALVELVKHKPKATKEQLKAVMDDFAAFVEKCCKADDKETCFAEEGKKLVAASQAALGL
apo-transferrin (P02787, residues 20-698): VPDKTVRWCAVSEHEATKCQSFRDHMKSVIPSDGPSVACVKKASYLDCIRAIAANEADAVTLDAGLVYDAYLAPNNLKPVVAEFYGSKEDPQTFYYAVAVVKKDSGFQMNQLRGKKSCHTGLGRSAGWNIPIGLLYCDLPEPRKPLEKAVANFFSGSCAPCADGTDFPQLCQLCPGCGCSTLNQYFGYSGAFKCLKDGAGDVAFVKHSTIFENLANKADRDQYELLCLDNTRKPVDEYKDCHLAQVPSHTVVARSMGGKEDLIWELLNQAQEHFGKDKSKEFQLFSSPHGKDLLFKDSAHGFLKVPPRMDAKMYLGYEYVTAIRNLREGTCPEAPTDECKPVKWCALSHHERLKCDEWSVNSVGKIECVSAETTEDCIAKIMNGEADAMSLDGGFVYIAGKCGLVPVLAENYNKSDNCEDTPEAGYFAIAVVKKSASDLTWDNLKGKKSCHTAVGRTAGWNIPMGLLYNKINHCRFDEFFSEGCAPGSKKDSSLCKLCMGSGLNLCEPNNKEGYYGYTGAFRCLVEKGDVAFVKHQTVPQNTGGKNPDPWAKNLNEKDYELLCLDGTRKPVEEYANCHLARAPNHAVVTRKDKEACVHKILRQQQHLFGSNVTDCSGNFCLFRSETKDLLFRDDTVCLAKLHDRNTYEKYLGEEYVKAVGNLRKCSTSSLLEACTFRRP
transferrin mutant (E333,338R) (P02787, form named): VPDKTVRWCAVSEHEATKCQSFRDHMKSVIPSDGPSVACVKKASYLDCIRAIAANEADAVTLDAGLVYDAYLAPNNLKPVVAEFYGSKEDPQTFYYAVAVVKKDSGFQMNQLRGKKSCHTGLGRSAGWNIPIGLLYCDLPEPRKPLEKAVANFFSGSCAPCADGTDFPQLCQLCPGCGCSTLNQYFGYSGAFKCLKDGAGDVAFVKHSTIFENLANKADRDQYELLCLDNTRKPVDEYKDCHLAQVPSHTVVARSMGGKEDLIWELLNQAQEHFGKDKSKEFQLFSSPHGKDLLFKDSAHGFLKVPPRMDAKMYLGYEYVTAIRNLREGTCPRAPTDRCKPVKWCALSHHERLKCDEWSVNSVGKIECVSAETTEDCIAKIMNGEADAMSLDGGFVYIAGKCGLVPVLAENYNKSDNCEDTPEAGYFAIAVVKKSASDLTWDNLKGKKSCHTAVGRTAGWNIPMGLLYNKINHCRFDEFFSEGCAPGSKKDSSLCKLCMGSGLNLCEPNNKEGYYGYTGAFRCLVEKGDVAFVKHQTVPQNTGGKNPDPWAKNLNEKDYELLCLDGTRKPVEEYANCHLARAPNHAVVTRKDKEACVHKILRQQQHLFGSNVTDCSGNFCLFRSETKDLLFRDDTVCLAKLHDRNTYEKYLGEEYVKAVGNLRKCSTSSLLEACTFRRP
UniProt P01008, residues 33-464: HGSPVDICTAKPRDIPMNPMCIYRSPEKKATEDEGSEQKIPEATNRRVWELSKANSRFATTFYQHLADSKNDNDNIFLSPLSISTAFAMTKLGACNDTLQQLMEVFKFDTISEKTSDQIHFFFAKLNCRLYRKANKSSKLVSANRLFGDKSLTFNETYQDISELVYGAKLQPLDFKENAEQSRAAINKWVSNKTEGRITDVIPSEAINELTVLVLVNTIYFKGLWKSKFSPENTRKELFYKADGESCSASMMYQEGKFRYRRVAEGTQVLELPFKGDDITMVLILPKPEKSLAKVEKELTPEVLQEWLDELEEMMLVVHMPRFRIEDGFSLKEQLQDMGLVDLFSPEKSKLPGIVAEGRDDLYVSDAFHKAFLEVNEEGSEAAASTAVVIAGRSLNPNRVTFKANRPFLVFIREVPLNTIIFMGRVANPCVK

What was measured:
[1] = target: human serum albumin (human) (UniProt P02768); experiment: SPR; BIAcore 2000; HSA as negative control in place of transferrin; both purified
apo-transferrin (human) = apo-transferrin (human) (UniProt P02787); experiment: SPR; transferrin with synthetic peptides (TH16, FX18, RCL19 and their scrambled controls); both purified
[2] = target: transferrin mutant (E333,338R) (human) (UniProt P02787); experiment: SPR; wild-type or mutant transferrin with thrombin or FXIIa, and transferrin with wild-type or mutant thrombin; both purified

Molecule: SCPTHYSRQRCRNAVLER [FX18-scr]
binding (apo-transferrin (human)): no binding

Molecule: GANPRELNSAATIASVARV [RCL19-scr]
binding (apo-transferrin (human)): no binding

Second part, the molecule after the results:

binding [1]: no binding
Molecule: antithrombin (from UniProt P01008 33-464)

binding (apo-transferrin (human)): no binding
Molecule: RKKGIRRYTERHSNIE [TH16-scr]

binding [2]: binds weakly
binding [1]: no binding
B1: human α-FXIIa (enzyme)
chain 1: IPPWEAPKEHKYKAEEHTVVLTVTGEPCHFPFQYHRQLYHKCTHKGRPGPQPWCATTPNFDQDQRWGYCLEPKKVKDHCSKHSPCQKGGTCVNMPSGPHCLCPQHLTGNHCQKEKCFEPQLLRFFHKNEIWYRTEQAAVARCQCKGPDAHCQRLASQACRTNPCLHGGRCLEVEGHRLCHCPVGYTGAFCDVDTKASCYDGRGLSYRGLARTTLSGAPCQPWASEATYRNVTAEQARNWGLGGHAFCRNPDNDIRPWCFVLNRDRLSWEYCDLAQCQTPTQAAPPTPVSPRLHVPLMPAQPAPPKPQPTTRTPPQSQTPGALPAKREQPPSLTRNGPLSCGQRLRKSLSSMTR
chain 2: VVGGLVALRGAHPYIAALYWGHSFCAGSLIAPCWVLTAAHCLQDRPAPEDLTVVLGQERRNHSCEPCQTLAVRSYRLHEAFSPVSYQHDLALLRLQEDADGSCALLSPYVQPVCLPSGAARPSETTLCQVAGWGHQFEGAEEYASFLQEAQVPFLSLERCSAPDVHGSSILPGMLCAGFLEGGTDACQGDSGGPLVCEDQAAERRLTLQGIISWGSGCGDRNKPGVYTDVAYYLAWIREHTVS
notes: factor XIIa heavy chain, cut product of human factor XII; factor XIIa light chain (protease domain), cut product of human factor XII; also called factor XIIa; source: bought: Enzyme Research Laboratories (HFXIIa 1212a)
